No constants are given. Whether binding was seen depends on the method and setting. Binding seen in cells or lysates may run through a third protein.
Target: T1, ASCL1 (achaete-scute homolog 1), endogenous in Lu139 cells (human (endogenous in Lu139)) (UniProt P50553)
T1 sequence: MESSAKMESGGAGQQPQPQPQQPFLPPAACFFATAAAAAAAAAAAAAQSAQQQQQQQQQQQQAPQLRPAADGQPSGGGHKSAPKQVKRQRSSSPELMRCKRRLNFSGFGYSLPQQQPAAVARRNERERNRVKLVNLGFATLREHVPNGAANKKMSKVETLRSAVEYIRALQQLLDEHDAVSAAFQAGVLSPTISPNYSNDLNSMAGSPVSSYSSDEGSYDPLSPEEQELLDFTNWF
Test: proximity ligation; Duolink flowPLA Detection Kit Green, read by flow cytometry; Lu139-TetO-NEUROD1 cells with or without doxycycline, fixed with 4% paraformaldehyde, permeabilised with 0.1% Triton X-100; anti-ASCL1 (24B72D11) and anti-NEUROD1 (EPR20766) antibodies at 1:50

Amino acid sequences for entries named in this document (tags omitted).
UniProt Q13562: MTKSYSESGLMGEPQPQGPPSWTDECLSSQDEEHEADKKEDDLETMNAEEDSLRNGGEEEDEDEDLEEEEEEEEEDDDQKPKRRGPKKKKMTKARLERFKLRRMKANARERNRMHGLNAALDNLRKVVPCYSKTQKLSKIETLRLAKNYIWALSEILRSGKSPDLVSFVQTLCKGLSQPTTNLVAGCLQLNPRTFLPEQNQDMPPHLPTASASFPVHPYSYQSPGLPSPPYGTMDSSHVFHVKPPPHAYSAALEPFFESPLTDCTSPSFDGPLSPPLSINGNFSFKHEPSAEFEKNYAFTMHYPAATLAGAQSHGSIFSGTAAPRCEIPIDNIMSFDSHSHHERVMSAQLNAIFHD

binding: no binding
Substance: NEUROD1 (neurogenic differentiation factor 1), exogenous, doxycycline-induced, with C-terminal HA-tag (from UniProt Q13562 1-356)

From PMC11906894
